Earlier results in publication PMC9974466 (Proceedings of the National Academy of Sciences of the …, 2023).

B1: KSVKKRSVSEIQ … LMHNLGKHLNSMERVEWLRKKLQDVHNFVALGAPLAPRDAGSQRPRKKEDNVLVESHEKSLGEADKADVNVLTKAKSQ (protein, UniProt P01270 26-115, looked up)
pro-form: KSVKKRSVSEIQLMHNLGKHLNSMERVEWLRKKLQDVHNFVALGAPLAPRDAGSQRPRKKEDNVLVESHEKSLGEADKADVNVLTKAKSQ
modifications: pro-form

Test system: GH4C1 cells
Conditions: CM from GH4C1 cells infected with human preproPTH vector, antibody raised against [S1]PTH(−6 to +7); ref [5]; cited from earlier work

Molecule	Detection in CM by Western blot
SVSEIQ … LMHNLGKHLNSMERVEWLRKKLQDVHNFVALGAPLAPRDAGSQRPRKKEDNVLVESHEKSLGEADKADVNVLTKAKSQ [PTH(1-84), Recombinant PTH(1-84) was from Chugai Pharmaceutical Co., Ltd]	can be detected by Western blot analysis
B1	but not proPTH
